# Data published in the supplement of paper PMC12067093, “Discovery and optimisation of a covalent ligand for TRIM25 and its application to targeted protein ubiquitination” (Chemical Science, 2025).
# The list shows a part of the results.
# Compound: Cc1cc(ccc1-c1ccccc1)C(=O)N1CCCN(CC1)C(=O)CCl [compound 10]
# Experiment: probe-labelled cysteine peptide fold change vs DMSO (competition) (log2 fold change); higher = less target engagement (more negative = stronger competition)
# Conditions: THP-1, incubation time: 4 h
# 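Note: competitive profiling in live THP-1 cells: cysteine peptides tagged with an iodoacetamide desthiobiotin (IA-DTB) probe, intensity after compound treatment relative to DMSO-treated cells.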
target,measurement,setting,value
COPG1_Q9Y678_97_EMSCIAEDVIIVTSSLTK (UniProt Q9Y678),probe-labelled cysteine peptide fold change,10 µM,0.11
same,probe-labelled cysteine peptide fold change,50 µM,0.136
COPE_O14579_148_ALHQGDSLECTAMTVQILLK (UniProt O14579),probe-labelled cysteine peptide fold change,10 µM,0.323
same,probe-labelled cysteine peptide fold change,50 µM,0.0262
COG2_Q14746_36_EDFDVDHFVSDCR (UniProt Q14746),probe-labelled cysteine peptide fold change,10 µM,0.0716
same,probe-labelled cysteine peptide fold change,50 µM,0.262
CNTRL_Q7Z7A1_639_GQATQAQNECR (UniProt Q7Z7A1),probe-labelled cysteine peptide fold change,10 µM,0.289
same,probe-labelled cysteine peptide fold change,50 µM,0.286
COPA_P53621_41_MCTLIDKFDEHDGPVR (UniProt P53621),probe-labelled cysteine peptide fold change,10 µM,-0.00586
same,probe-labelled cysteine peptide fold change,50 µM,-0.0496
COPS5_Q92905_218_IEDFGVHCK (UniProt Q92905),probe-labelled cysteine peptide fold change,10 µM,-0.0765
same,probe-labelled cysteine peptide fold change,50 µM,0.0276
COG5_Q9UP83_366_KRDPVSHICFIEEIVK (UniProt Q9UP83),probe-labelled cysteine peptide fold change,10 µM,0.0448
same,probe-labelled cysteine peptide fold change,50 µM,0.479
CNTRL_Q7Z7A1_1375_SLECEVEELHR (UniProt Q7Z7A1),probe-labelled cysteine peptide fold change,10 µM,-0.0324
same,probe-labelled cysteine peptide fold change,50 µM,0.125
COA6_Q5JTJ3_79_CLDENLEDASQCK (UniProt Q5JTJ3),probe-labelled cysteine peptide fold change,10 µM,-0.00398
same,probe-labelled cysteine peptide fold change,50 µM,0.0284
COPG1_Q9Y678_516_RCVMDDDNEVR (UniProt Q9Y678),probe-labelled cysteine peptide fold change,10 µM,0.134
same,probe-labelled cysteine peptide fold change,50 µM,0.224
COPA_P53621_1148_KILSACEK (UniProt P53621),probe-labelled cysteine peptide fold change,10 µM,-0.212
same,probe-labelled cysteine peptide fold change,50 µM,-1.12
CNOT1_A5YKK6_219_CPVVLAPLLYPEK (UniProt A5YKK6),probe-labelled cysteine peptide fold change,10 µM,0.0635
same,probe-labelled cysteine peptide fold change,50 µM,-0.221
COPB2_P35606_104_CIAVHPTQPFILTSSDDMLIK (UniProt P35606),probe-labelled cysteine peptide fold change,10 µM,0.397
same,probe-labelled cysteine peptide fold change,50 µM,0.27
COPA_P53621_1191_CPLSGACYSPEFK (UniProt P53621),probe-labelled cysteine peptide fold change,10 µM,0.048
same,probe-labelled cysteine peptide fold change,50 µM,0.0304
COG3_Q96JB2_363_ELLLGPSIACTVAELTSQNNRDHCALVR (UniProt Q96JB2),probe-labelled cysteine peptide fold change,10 µM,0.16
same,probe-labelled cysteine peptide fold change,50 µM,0.126
COG3_Q96JB2_334_IPEYQQLLNDIHQCYLDQR (UniProt Q96JB2),probe-labelled cysteine peptide fold change,10 µM,0.246
same,probe-labelled cysteine peptide fold change,50 µM,0.0853
COPE_O14579_212_CSPTLLLLNGQAACHMAQGR (UniProt O14579),probe-labelled cysteine peptide fold change,10 µM,0.0619
same,probe-labelled cysteine peptide fold change,50 µM,0.054
COLGALT1_Q8NBJ5_412_GELGCFLSHYNIWK (UniProt Q8NBJ5),probe-labelled cysteine peptide fold change,10 µM,0.112
same,probe-labelled cysteine peptide fold change,50 µM,0.0586
COMMD9_Q9P000_47_LLDVTCSSLSVTQEEAEELLQALHR (UniProt Q9P000),probe-labelled cysteine peptide fold change,10 µM,0.208
same,probe-labelled cysteine peptide fold change,50 µM,0.364
COPS7B_Q9H9Q2_240_ECPPHAEQR (UniProt Q9H9Q2),probe-labelled cysteine peptide fold change,10 µM,-0.141
same,probe-labelled cysteine peptide fold change,50 µM,0.0612
COMT_P21964_238_GSSCFECTHYQSFLEYR (UniProt P21964),probe-labelled cysteine peptide fold change,10 µM,0.0524
same,probe-labelled cysteine peptide fold change,50 µM,0.0733
COPG2_Q9UBF2_440+446_EAGLAHLCEFIEDCEHTVLATK (UniProt Q9UBF2),probe-labelled cysteine peptide fold change,10 µM,-0.0252
same,probe-labelled cysteine peptide fold change,50 µM,-0.112
CNBP_P62633_158_TSEVNCYR (UniProt P62633),probe-labelled cysteine peptide fold change,10 µM,-0.0156
same,probe-labelled cysteine peptide fold change,50 µM,-0.198
COPB2_P35606_40_SVDLHPTEPWMLASLYNGSVCVWNHETQTLVK (UniProt P35606),probe-labelled cysteine peptide fold change,10 µM,0.211
same,probe-labelled cysteine peptide fold change,50 µM,0.122
CNOT2_Q9NZN8_175_SSPSIICMPK (UniProt Q9NZN8),probe-labelled cysteine peptide fold change,10 µM,-0.236
same,probe-labelled cysteine peptide fold change,50 µM,-0.343
COPG1_Q9Y678_169_CSFDVVK (UniProt Q9Y678),probe-labelled cysteine peptide fold change,10 µM,-0.158
same,probe-labelled cysteine peptide fold change,50 µM,0.202
CNOT9_Q92600_99_VCNALALLQCVASHPETR (UniProt Q92600),probe-labelled cysteine peptide fold change,10 µM,0.0897
same,probe-labelled cysteine peptide fold change,50 µM,-0.333
COPG2_Q9UBF2_88_MCYLTIK (UniProt Q9UBF2),probe-labelled cysteine peptide fold change,10 µM,0.0809
same,probe-labelled cysteine peptide fold change,50 µM,-0.0402
CNDP2_Q96KP4_161_FCLEGMEESGSEGLDELIFAR (UniProt Q96KP4),probe-labelled cysteine peptide fold change,10 µM,0.0344
same,probe-labelled cysteine peptide fold change,50 µM,-0.213
CMSS1_Q9BQ75_55_ECFLIQPK (UniProt Q9BQ75),probe-labelled cysteine peptide fold change,10 µM,0.238
same,probe-labelled cysteine peptide fold change,50 µM,-0.0333
CNP_P09543_111_LDEDLAAYCR (UniProt P09543),probe-labelled cysteine peptide fold change,10 µM,0.132
same,probe-labelled cysteine peptide fold change,50 µM,0.0616
COG6_Q9Y2V7_234_WAQSECR (UniProt Q9Y2V7),probe-labelled cysteine peptide fold change,10 µM,-0.0733
same,probe-labelled cysteine peptide fold change,50 µM,-0.125
COPB2_P35606_221+234_TCVQTLEGHAQNVSCASFHPELPIIITGSEDGTVR (UniProt P35606),probe-labelled cysteine peptide fold change,10 µM,-0.0281
same,probe-labelled cysteine peptide fold change,50 µM,0.213
COMT_P21964_83_ILNHVLQHAEPGNAQSVLEAIDTYCEQK (UniProt P21964),probe-labelled cysteine peptide fold change,10 µM,-0.119
same,probe-labelled cysteine peptide fold change,50 µM,0.0476
COPG1_Q9Y678_706_SLPYNQPGTCYTLVALPK (UniProt Q9Y678),probe-labelled cysteine peptide fold change,10 µM,0.143
same,probe-labelled cysteine peptide fold change,50 µM,-0.105
COPB1_P53618_284_AAAQCYIDLIIK (UniProt P53618),probe-labelled cysteine peptide fold change,10 µM,0.153
same,probe-labelled cysteine peptide fold change,50 µM,0.249
COPG1_Q9Y678_258_DSPLFDFIESCLR (UniProt Q9Y678),probe-labelled cysteine peptide fold change,10 µM,-0.0848
same,probe-labelled cysteine peptide fold change,50 µM,-0.171
COP1_Q8NHY2_704_DRKEDDTNEFVSAVCWR (UniProt Q8NHY2),probe-labelled cysteine peptide fold change,10 µM,0.411
same,probe-labelled cysteine peptide fold change,50 µM,-0.248
CNOT4_O95628_56_TDENGLCPACR (UniProt O95628),probe-labelled cysteine peptide fold change,10 µM,0.168
same,probe-labelled cysteine peptide fold change,50 µM,0.246

# No new results follow: an excerpt of the list.
target,measurement,setting,value
CNBP_P62633_158_TSEVNCYR (UniProt P62633),probe-labelled cysteine peptide fold change,50 µM,-0.198
COPB2_P35606_40_SVDLHPTEPWMLASLYNGSVCVWNHETQTLVK (UniProt P35606),probe-labelled cysteine peptide fold change,10 µM,0.211
same,probe-labelled cysteine peptide fold change,50 µM,0.122
